From PMC5995858
Results are given in words; binding and its absence hold for the method and conditions named. Binding seen in cells or lysates may run through a third protein. Some binding calls cover weakened binding; strength is not graded here. Tags and fused reporters may be left off the sequences shown.

The chains behind the UniProt entries cited, without tags or fusion partners.
UniProt Q8R527: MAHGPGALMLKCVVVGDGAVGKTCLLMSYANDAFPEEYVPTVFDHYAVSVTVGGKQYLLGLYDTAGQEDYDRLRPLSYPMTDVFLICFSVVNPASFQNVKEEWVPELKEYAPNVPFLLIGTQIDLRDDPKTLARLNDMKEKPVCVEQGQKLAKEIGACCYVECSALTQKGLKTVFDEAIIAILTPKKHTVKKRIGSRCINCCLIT

Target: GST-TC10 (mouse) (UniProt Q8R527)
Test: pull-down; GST-TC10 coupled to glutathione-sepharose beads, incubated with lysates of transfected HEK 293T cells (TLB lysis buffer: Tris/HCl 50 mM pH 7.4, NaCl 150 mM, Triton X-100 1%); bound protein by Western blot (anti-HA or anti-GFP); only the target purified

B1: HA-Arhgef7 (protein, UniProt Q9ES28-5 1-782)
chain: MNSAEQTVTWLITLGVLESPKKTISDPEVFLQASLKDGVVLCRLLERLLPGTIEKVYPEPRNESECLSNIREFLRACGASLRLETFDANDLYQGQNFNKVLSSLVTLNKVTADIGLGSDSVCARPSSHRIKSFDSLGSQSSHSRTSKLLQSQYRSLDMTDNTNSQLVVRAKFNFQQTNEDELSFSKGDVIHVTRVEEGGWWEGTHNGRTGWFPSNYVREIKPSEKPVSPKSGTLKSPPKGFDTTAINKSYYNVVLQNILETEHEYSKELQSVLSTYLRPLQTSDKLSSANTSYLMGNLEEISSFQQVLVQSLEECTKSPEAQQRVGGCFLSLMPQMRTLYLAYCANHPSAVSVLTEHSEDLGEFMETKGASSPGILVLTTGLSKPFMRLDKYPTLLKELERHMEDYHPDRQDIQKSMTAFKNLSAQCQEVRKRKELELQILTEPIRSWEGDDIKTLGSVTYMSQVTIQCAGSEEKNERYLLLFPNLLLMLSASPRMSGFIYQGKLPTTGMTITKLEDSENHRNAFEISGSMIERILVSCTSQQDLHEWVEHLQKQTKVTSVSNPTIKPHSVPSHTLPSHPLTPSSKHADSKPVALTPAYHTLPHPSHHGTPHTTISWGPLEPPKTPKPWSLSCLRPAPPLRPSAALCYKEDLSKSPKTMKKLLPKRKPERKPSDEEFAVRKSTAALEEDAQILKVIEAYCTSAKTRQTLNSTWQGTDLMHNHVLADDDQSSLDSLGRRSSLSRLEPSDLSEDSEYDSIWTAHSYRMGSASRKSCCSYISHQN
Which binding does the source give for B1 here?
Its binding is “binds”.

B2: GFP-Arhgef7 (protein, UniProt Q9ES28-5 1-782)
chain: MNSAEQTVTWLITLGVLESPKKTISDPEVFLQASLKDGVVLCRLLERLLPGTIEKVYPEPRNESECLSNIREFLRACGASLRLETFDANDLYQGQNFNKVLSSLVTLNKVTADIGLGSDSVCARPSSHRIKSFDSLGSQSSHSRTSKLLQSQYRSLDMTDNTNSQLVVRAKFNFQQTNEDELSFSKGDVIHVTRVEEGGWWEGTHNGRTGWFPSNYVREIKPSEKPVSPKSGTLKSPPKGFDTTAINKSYYNVVLQNILETEHEYSKELQSVLSTYLRPLQTSDKLSSANTSYLMGNLEEISSFQQVLVQSLEECTKSPEAQQRVGGCFLSLMPQMRTLYLAYCANHPSAVSVLTEHSEDLGEFMETKGASSPGILVLTTGLSKPFMRLDKYPTLLKELERHMEDYHPDRQDIQKSMTAFKNLSAQCQEVRKRKELELQILTEPIRSWEGDDIKTLGSVTYMSQVTIQCAGSEEKNERYLLLFPNLLLMLSASPRMSGFIYQGKLPTTGMTITKLEDSENHRNAFEISGSMIERILVSCTSQQDLHEWVEHLQKQTKVTSVSNPTIKPHSVPSHTLPSHPLTPSSKHADSKPVALTPAYHTLPHPSHHGTPHTTISWGPLEPPKTPKPWSLSCLRPAPPLRPSAALCYKEDLSKSPKTMKKLLPKRKPERKPSDEEFAVRKSTAALEEDAQILKVIEAYCTSAKTRQTLNSTWQGTDLMHNHVLADDDQSSLDSLGRRSSLSRLEPSDLSEDSEYDSIWTAHSYRMGSASRKSCCSYISHQN
B2 was tested. Which binding did it give?
The binding was “binds”.
